This test is described as follows: qHTS Assay for Lipid Storage Modulators in Drosophila S3 Cells.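 For cell number change: cells counted by Cell Tracker Red CMTPX staining in the red channel.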 As to conditions: BODIPY lipid droplet fluorescence, 18-24 h; for cell number change: measured here: cell count max response, cells fed with added oleic acid. In outline: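 Drosophila S3 cells got compounds at several concentrations plus oleic acid (400 uM solution). Laser-scanning cytometry with 488 nm excitation read lipid droplets at 500-530 nm and cells at 575-640 nm. Percent activity was relative to 20 uM Triacsin C.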
(In general: Quantitative high-throughput screening tests each substance at several concentrations.)

Where [1] appears, read: measured here: cell number channel AC50, cells fed with added oleic acid.
The mark [2] stands for this setting: measured here: lipid fluorescence (Fed channel) AC50, cells fed with added oleic acid.

The structures appear in SMILES notation. The list shows a part of the results. These are further read-outs of the screen, such as a control signal, another cell line or another target. No call is given for them. Compounds called inactive in the main read-out are mostly missing here. Words in brackets tell the shape of the fitted curve; partial curves, single points and poor fits give uncertain potencies.

Regarding `COc1ccc(OC)c(NC(=O)CSc2ncnc3c2cnn3-c2ccccc2Cl)c1`, the cell number change is -61.3%. The AC50 – broadly, the midpoint of the concentration-response curve, whichever way the signal moves – under setting [1] is 2.31 µM [falling, full curve]. Also, the AC50 under setting [2] is 2.31 µM [falling, full curve].
Turning to `CCc1nc(SCC(=O)Nc2cc(C)on2)n[nH]1`, the cell number change came to 17.2%. Also, the AC50 under setting [2] is 32.6 µM [rising, partial curve].
In the case of `COc1cc(CN2CCN(c3ccccc3F)CC2)c([N+](=O)[O-])cc1OC`, the cell number change came out at 15.7%. For the same compound, the AC50 under setting [1] is 0.517 µM [rising, full curve, poor fit]. Besides, under setting [2], the half-maximal activity concentration (AC50) was 20.6 µM [rising, single point].
For the compound `Cc1oc2c(cc(NS(=O)(=O)c3ccc(C(C)C)cc3)c3ccccc32)c1C(=O)O`, the cell number change was determined as 3.75%. Under setting [2], the AC50 was 0.164 µM [falling, single point].
`CN(C)S(=O)(=O)c1cccc(C(=O)Nc2ccc(S(=O)(=O)N3CCCC3)cc2)c1`: the AC50 under setting [2] was 5.8 µM [rising, single point].
Turning to `CSc1cccc(NC(=O)CCc2ccccc2)c1`, the cell number change amounted to 9.27%.
Turning to `Cc1cccc(Oc2nc(CN3CCOCC3)nc3sc4c(c23)CCCC4)c1`, the concentration at half-maximal activity (AC50) under setting [2] was 18.4 µM [rising, single point].
Turning to `O=C(COC(=O)CCCNC(=O)c1ccc(Cl)cc1)NC1CC1`, the cell number change turned out to be 0.452%. Besides, the AC50 under setting [2] is 0.0291 µM [rising, full curve, poor fit].
Consider `O=S(=O)(c1cccs1)N1CN(Cc2ccccc2)c2nc3ccccc3nc21`, for which the cell number change was -13%. For the same compound, the half-maximal activity concentration (AC50) under setting [2] is 7.31 µM [falling, partial curve, poor fit].
On to `COC(=O)C1=C(O)/C(=C\c2ccc(CNC(=O)C(=O)Nc3ccc(C)cc3)o2)N=C1C`, for which the half-maximal activity concentration (AC50) under setting [2] is 5.17 µM [rising, partial curve, poor fit].
With `Cc1ccc(-c2cc(C(=O)N3CCOCC3)no2)cc1`, the cell number change was found to be 7.89%. Further, the AC50 under setting [2] was 1.58 µM [falling, partial curve].
In the case of `COc1cccc(NC(=O)C(Sc2nnc(Nc3ccccc3C)s2)c2ccccc2)c1` (centres undefined), the cell number change was determined as 0.331%.
The same measure, in the same setting: as for `COc1cc(-c2nc3cnccn3c2Nc2ccc(C)cc2)ccc1O`, the figure is -19.2%.
With `O=C(O)c1ccccc1P(=O)(c1ccccc1)c1ccccc1`, the cell number change was -28.1%. Besides, the AC50 under setting [2] was 18.4 µM [falling, single point].
As for `COc1ccc(NC(=O)CCS(=O)(=O)c2ccc3c(c2)NC(=O)C(C)S3)cc1OC` (centres undefined), the cell number change was 26.9%.
For the compound `CC(C)(C)NC(=O)NC(=O)COC(=O)c1cccc(S(=O)(=O)N2CCCCC2)c1`, the cell number change was -41.4%. Besides, the concentration at half-maximal activity (AC50) under setting [1] was 29.1 µM [falling, partial curve]. The half-maximal activity concentration (AC50) under setting [2] is 29.1 µM [falling, partial curve, poor fit].
Regarding `COc1ccccc1NS(=O)(=O)c1ccc(Cl)c(NC(=O)CN2C(=O)c3ccccc3C2=O)c1`, the cell number change was 6.2%. The AC50 under setting [2] is 4.11 µM [rising, full curve, poor fit].
In the case of `Cc1cc2c(cc1S(=O)(=O)N1CCN(c3cccc(C)c3C)CC1)OCC(=O)N2`, the cell number change was -14.4%. For the same compound, the AC50 under setting [2] is 6.51 µM [falling, single point].
With `CCOC(=O)C1=C(CN2CCc3ccccc32)NC(=O)NC1c1cccc([N+](=O)[O-])c1` (centres undefined), the cell number change is 90.9%. Under setting [1], the AC50 was 11.6 µM [rising, partial curve]. The AC50 under setting [2] was 11.6 µM [rising, partial curve].
With `COc1ccccc1OCc1ccc(C(=O)NCC2CCCO2)cc1` (centres undefined), the cell number change was -3.48%. In addition, the AC50 under setting [2] is 0.00461 µM [falling, full curve, poor fit].
With `CCn1c(N2CCN(C(=S)NCCc3ccccc3)CC2)nc2ccccc21`, the cell number change was -41%. Under setting [1], the half-maximal activity concentration (AC50) is 16.4 µM [falling, single point]. Also, the concentration at half-maximal activity (AC50) under setting [2] was 23.1 µM [falling, partial curve].
On to `O=C1c2cccnc2C(=O)N1CNc1ccc(Cl)cc1`, for which the cell number change is -39.8%. Also, the AC50 under setting [1] is 29.1 µM [falling, single point].
Regarding `COCCNC(=O)CCC1CCN(C/C=C/c2ccccc2OC)CC1`, the cell number change was -13.2%. Besides, the AC50 under setting [2] was 4.11 µM [falling, single point].
For the compound `C/C(=N\NC(=O)c1cccc(S(=O)(=O)N2CCCC2)c1)c1ccncc1`, the cell number change is 5.12%. Further, the AC50 under setting [2] is 14.6 µM [rising, partial curve].
On to `Cc1ccc(NC(=O)CSc2nnc(CCNC(=O)OC(C)(C)C)o2)c(C)c1`, for which the cell number change was found to be 50.2%. The AC50 under setting [1] was 0.13 µM [rising, full curve]. In addition, the half-maximal activity concentration (AC50) under setting [2] is 0.58 µM [rising, full curve].
Turning to `COC(=O)CN1C(=O)C2(C(C#N)=C(N)Oc3n[nH]c(-c4cccs4)c32)c2ccccc21` (centres undefined), the AC50 is, setting by setting: under setting [1], 0.517 µM [rising, full curve, poor fit]; under setting [2], 0.103 µM [falling, full curve, poor fit].
Consider `Cc1ccc(S(=O)(=O)Nc2cc(C)cn(Cc3ccccc3)c2=O)cc1`, for which the cell number change stood at 1.32%.
As for `Cc1ccc(C(=O)CSc2nnc(N)s2)c(C)c1`, the concentration at half-maximal activity (AC50) was 0.116 µM [falling, full curve, poor fit] under setting [1] and 0.116 µM [falling, full curve, poor fit] under setting [2].
For the compound `CN(Cc1nc2ccccc2c(=O)[nH]1)c1ccccc1`, the cell number change was determined as 9.37%. For the same compound, under setting [2], the AC50 was 23.1 µM [rising, partial curve].
For the compound `CC1C(=O)N(c2ccc(S(=O)(=O)N(C)C)cc2)C1(/C=C/c1ccccc1)C(=O)NC1CCCC1` (centres undefined), the cell number change was -11.1%. The concentration at half-maximal activity (AC50) under setting [1] is 4.11 µM [rising, partial curve].
Turning to `COc1ccc(-n2nnc3c(SCC(=O)NCC4CCCO4)ncnc32)cc1` (centres undefined), the cell number change was -35.4%. Under setting [1], the half-maximal activity concentration (AC50) is 18.4 µM [falling, single point]. Further, under setting [2], the half-maximal activity concentration (AC50) is 29.1 µM [falling, single point].
For the compound `COC(=O)c1ccc(N2CCC(c3cc(-c4ccc(OC)cc4)n[nH]3)CC2)c([N+](=O)[O-])c1`, the cell number change was -13%. For the same compound, the AC50 under setting [2] is 16.4 µM [falling, single point].
In the case of `Cc1cc(F)ccc1NC(=O)CCc1ccc(S(=O)(=O)N2CCOCC2)cc1`, the cell number change was -16%. For the same compound, the AC50 under setting [2] is 6.51 µM [rising, single point].
In the case of `CCOC(=O)N1CCN(C(=O)c2ccc(C)c(S(=O)(=O)Nc3cccc(C)c3C)c2)CC1`, the cell number change was -3.85%. In addition, under setting [2], the AC50 was 0.731 µM [rising, single point].
Regarding `O=C1N=c2ccccc2=C1c1sc(NS(=O)(=O)Cc2ccccc2)nc1O`, the cell number change was 19.4%. Besides, the AC50 under setting [2] is 9.2 µM [rising, partial curve].
Consider `CC(C)[C@H](NC(=O)[C@@H]1Cc2ccccc2CN1)C(=O)NC1CCCCC1`, for which the cell number change was 1.53%.
`O=C(Cc1cccs1)NCc1ccc(Cl)cc1Cl`: the cell number change is 3.38%. Under setting [2], the concentration at half-maximal activity (AC50) is 20.6 µM [falling, single point].
For `COc1ccc(C(=O)c2sc3nc(C)cc(-c4cccs4)c3c2N)cc1OC`, the cell number change was found to be 22.5%. Under setting [1], the concentration at half-maximal activity (AC50) is 3.26 µM [rising, full curve, poor fit]. The AC50 under setting [2] is 0.00461 µM [falling, full curve, poor fit].
With `CN(C)C(=O)Cn1cc(S(=O)(=O)Cc2ccccc2)c2ccccc21`, the AC50 under setting [2] was 32.6 µM [falling, partial curve, poor fit].
In the case of `O=C(CN1C(=O)/C(=C/c2ccc(F)cc2)SC1=S)N1CCN(CCc2ccccn2)CC1`, the cell number change is -24.4%.
For the compound `Fc1ccc(COc2ccccc2-c2ccnc3ncnn23)cc1`, the cell number change amounted to 20%. The half-maximal activity concentration (AC50) under setting [2] is 1.16 µM [rising, single point].
As for `COCCOC(=O)C1=C(C)OC(N)=C(C#N)C1c1ccc2c(c1)OCO2` (centres undefined), the cell number change was determined as 112%. The AC50 under setting [1] is 3.66 µM [rising, full curve]. The AC50 under setting [2] was 29.1 µM [rising, partial curve].
As for `O=C1CC(c2ccc(F)cc2)Cc2nc(NCc3ccco3)ncc21` (centres undefined), the cell number change was -19%. Also, the AC50 under setting [1] is 0.116 µM [falling, single point].
As to `CCSc1cc(N2CCOCC2)nc(-c2ccccc2)n1`, the cell number change was found to be 22.7%. In addition, the concentration at half-maximal activity (AC50) under setting [2] was 9.2 µM [rising, partial curve].
As for `CC(C)(C)c1ccc(Cn2c(=O)cnc3ccccc32)cc1`, the cell number change is -25%. Further, the AC50 under setting [2] was 29.1 µM [rising, single point].
With `O=C(O)Cn1c(CCS(=O)(=O)c2ccc(Br)cc2)nc2ccccc21`, the cell number change is -16.1%. For the same compound, the half-maximal activity concentration (AC50) under setting [2] was 29.1 µM [falling, single point].
Regarding `O=C1C2C3C=CC(C3)C2C(=O)N1/N=C/c1cn(Cc2ccccc2)c2ccccc12` (centres undefined), the cell number change was -0.203%.
On the same count and under the same terms, the same measure for `O=C(/C=C/c1ccccc1[N+](=O)[O-])N1CCCCC1`: 2.61%.
Turning to `NS(=O)(=O)c1ccc(Nc2ccc3cc(S(=O)(=O)N4CCCCC4)ccc3n2)cc1`, the cell number change was -51.3%. Further, under setting [1], the concentration at half-maximal activity (AC50) is 29.1 µM [falling, single point]. Under setting [2], the AC50 was 29.1 µM [falling, single point].
Consider `Cc1ccccc1-n1c(C)nnc1SCC(=O)N(C)C1CCS(=O)(=O)C1` (centres undefined), for which the cell number change is 52%. Besides, the concentration at half-maximal activity (AC50) under setting [1] is 29.1 µM [rising, single point]. In addition, under setting [2], the AC50 was 2.59 µM [rising, full curve].
On to `CC(C)CCNC(=O)/C=C/c1ccc(Br)cc1`, for which the cell number change worked out at 24.1%. In addition, the AC50 under setting [2] is 8.2 µM [rising, partial curve, poor fit].
`Cc1ccc(CSc2nnc(-c3cccc(S(=O)(=O)N4CCOCC4)c3)n2CC(C)C)cc1`: the cell number change is -100%. Under setting [1], the concentration at half-maximal activity (AC50) was 29.1 µM [falling, single point].
`CC(NC(=O)COC(=O)c1ccc(CO)cc1)C1CC2CCC1C2` (centres undefined): the cell number change is 18.7%. Also, the concentration at half-maximal activity (AC50) under setting [2] was 3.26 µM [falling, partial curve].
Turning to `Fc1ccc(NCc2ccccc2F)cc1Cl`, the cell number change is -39.1%. Also, the AC50 under setting [1] was 20.6 µM [falling, single point]. Further, the AC50 under setting [2] is 29.1 µM [falling, single point].
Regarding `Cc1c(CCO)c(=O)[nH]n1C(=O)c1ccc(F)cc1`, the cell number change was -1.32%. For the same compound, under setting [2], the AC50 was 0.82 µM [rising, full curve, poor fit].
For the compound `CN(C)S(=O)(=O)n1cnc(-c2ccccc2)c1-c1ccccc1`, the half-maximal activity concentration (AC50) is 2.59 µM [rising, partial curve] under setting [1] and 4.11 µM [rising, partial curve] under setting [2].
For the compound `COc1ccc(/C=N/N2CCN(C)CC2)c(OC)c1OC`, the cell number change was -47.9%. For the same compound, the half-maximal activity concentration (AC50) under setting [1] is 23.1 µM [falling, partial curve]. The AC50 under setting [2] was 18.4 µM [falling, partial curve].

The values are drawn from PubChem BioAssay AID2685 (National Center for Advancing Translational Sciences (NCATS), 2010).
